Publication PMC6591361
These are yes or no findings as the source states them, for the method shown. Where a sequence is shown, tags or fusion partners need not be part of it.

T1: Strep-tagged latent human transforming growth factor-β2 (pro-TGF-β2) (human) (UniProt P61812)
T1 sequence: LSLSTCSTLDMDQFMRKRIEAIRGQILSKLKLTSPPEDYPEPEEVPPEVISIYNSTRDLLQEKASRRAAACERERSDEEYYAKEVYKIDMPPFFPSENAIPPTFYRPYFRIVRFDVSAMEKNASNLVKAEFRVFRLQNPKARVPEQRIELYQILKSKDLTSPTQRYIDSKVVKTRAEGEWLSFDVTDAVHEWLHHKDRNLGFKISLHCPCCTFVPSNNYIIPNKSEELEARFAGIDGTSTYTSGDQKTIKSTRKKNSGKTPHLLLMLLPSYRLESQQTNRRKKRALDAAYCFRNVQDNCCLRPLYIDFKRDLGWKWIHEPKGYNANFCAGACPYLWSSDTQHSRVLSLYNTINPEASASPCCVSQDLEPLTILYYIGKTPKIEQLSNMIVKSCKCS


Target: T1, Strep-tagged latent human transforming growth factor-β2 (pro-TGF-β2) (human)
Experiment: SPR; Strep-tagged pro-TGF-β2 (19.0 nM) captured on Streptactin XT on a CM5 chip; analytes injected in multicycle runs (4–600 nM authentic hα2M, 75–1,200 nM N-hα2M and C-hα2M); HBNS, 37 °C; both purified

Binder | binding
native authentic human α2-macroglobulin (protein, UniProt P01023 24-1474, thioester bond intact (native form)) SVSGKPQYMVLVPSLLHTETTEKGCVLLSYLNETVTVSASLESVRGNRSLFTDLEAENDVLHCVAFAVPKSSSNEEVMFLTVQVKGPTQEFKKRTTVMVKNEDSLVFVQTDKSIYKPGQTVKFRVVSMDENFHPLNELIPLVYIQDPKGNRIAQWQSFQLEGGLKQFSFPLSSEPFQGSYKVVVQKKSGGRTEHPFTVEEFVLPKFEVQVTVPKIITILEEEMNVSVCGLYTYGKPVPGHVTVSICRKYSDASDCHGEDSQAFCEKFSGQLNSHGCFYQQVKTKVFQLKRKEYEMKLHTEAQIQEEGTVVELTGRQSSEITRTITKLSFVKVDSHFRQGIPFFGQVRLVDGKGVPIPNKVIFIRGNEANYYSNATTDEHGLVQFSINTTNVMGTSLTVRVNYKDRSPCYGYQWVSEEHEEAHHTAYLVFSPSKSFVHLEPMSHELPCGHTQTVQAHYILNGGTLLGLKKLSFYYLIMAKGGIVRTGTHGLLVKQEDMKGHFSISIPVKSDIAPVARLLIYAVLPTGDVIGDSAKYDVENCLANKVDLSFSPSQSLPASHAHLRVTAAPQSVCALRAVDQSVLLMKPDAELSASSVYNLLPEKDLTGFPGPLNDQDNEDCINRHNVYINGITYTPVSSTNEKDMYSFLEDMGLKAFTNSKIRKPKMCPQLQQYEMHGPEGLRVGFYESDVMGRGHARLVHVEEPHTETVRKYFPETWIWDLVVVNSAGVAEVGVTVPDTITEWKAGAFCLSEDAGLGISSTASLRAFQPFFVELTMPYSVIRGEAFTLKATVLNYLPKCIRVSVQLEASPAFLAVPVEKEQAPHCICANGRQTVSWAVTPKSLGNVNFTVSAEALESQELCGTEVPSVPEHGRKDTVIKPLLVEPEGLEKETTFNSLLCPSGGEVSEELSLKLPPNVVEESARASVSVLGDILGSAMQNTQNLLQMPYGCGEQNMVLFAPNIYVLDYLNETQQLTPEIKSKAIGYLNTGYQRQLNYKHYDGSYSTFGERYGRNQGNTWLTAFVLKTFAQARAYIFIDEAHITQALIWLSQRQKDNGCFRSSGSLLNNAIKGGVEDEVTLSAYITIALLEIPLTVTHPVVRNALFCLESAWKTAQEGDHGSHVYTKALLAYAFALAGNQDKRKEVLKSLNEEAVKKDNSVHWERPQKPKAPVGHFYEPQAPSAEVEMTSYVLLAYLTAQPAPTSEDLTSATNIVKWITKQQNAQGGFSSTQDTVVALHALSKYGAATFTRTGKAAQVTIQSSGTFSSKFQVDNNNRLLLQQVSLPELPGEYSMKVTGEGCVYLQTSLKYNILPEKEEFPFALGVQTLPQTCDEPKAHTSFQISLSVSYTGSRSASNMAIVDVKMVSGFIPLKPTVKMLERSNHVSRTEVSSNHVLIYLDKVSNQTLSLFFTVLQDVPVRDLKPAIVKVYDYYETDEFAIAEYNAPCSKDLGNA | no binding (tested: 4–600 nM)
methylamine-induced authentic human α2-macroglobulin (protein, UniProt P01023 24-1474, thioester bond opened by methylamine, producing a free cysteine) SVSGKPQYMVLVPSLLHTETTEKGCVLLSYLNETVTVSASLESVRGNRSLFTDLEAENDVLHCVAFAVPKSSSNEEVMFLTVQVKGPTQEFKKRTTVMVKNEDSLVFVQTDKSIYKPGQTVKFRVVSMDENFHPLNELIPLVYIQDPKGNRIAQWQSFQLEGGLKQFSFPLSSEPFQGSYKVVVQKKSGGRTEHPFTVEEFVLPKFEVQVTVPKIITILEEEMNVSVCGLYTYGKPVPGHVTVSICRKYSDASDCHGEDSQAFCEKFSGQLNSHGCFYQQVKTKVFQLKRKEYEMKLHTEAQIQEEGTVVELTGRQSSEITRTITKLSFVKVDSHFRQGIPFFGQVRLVDGKGVPIPNKVIFIRGNEANYYSNATTDEHGLVQFSINTTNVMGTSLTVRVNYKDRSPCYGYQWVSEEHEEAHHTAYLVFSPSKSFVHLEPMSHELPCGHTQTVQAHYILNGGTLLGLKKLSFYYLIMAKGGIVRTGTHGLLVKQEDMKGHFSISIPVKSDIAPVARLLIYAVLPTGDVIGDSAKYDVENCLANKVDLSFSPSQSLPASHAHLRVTAAPQSVCALRAVDQSVLLMKPDAELSASSVYNLLPEKDLTGFPGPLNDQDNEDCINRHNVYINGITYTPVSSTNEKDMYSFLEDMGLKAFTNSKIRKPKMCPQLQQYEMHGPEGLRVGFYESDVMGRGHARLVHVEEPHTETVRKYFPETWIWDLVVVNSAGVAEVGVTVPDTITEWKAGAFCLSEDAGLGISSTASLRAFQPFFVELTMPYSVIRGEAFTLKATVLNYLPKCIRVSVQLEASPAFLAVPVEKEQAPHCICANGRQTVSWAVTPKSLGNVNFTVSAEALESQELCGTEVPSVPEHGRKDTVIKPLLVEPEGLEKETTFNSLLCPSGGEVSEELSLKLPPNVVEESARASVSVLGDILGSAMQNTQNLLQMPYGCGEQNMVLFAPNIYVLDYLNETQQLTPEIKSKAIGYLNTGYQRQLNYKHYDGSYSTFGERYGRNQGNTWLTAFVLKTFAQARAYIFIDEAHITQALIWLSQRQKDNGCFRSSGSLLNNAIKGGVEDEVTLSAYITIALLEIPLTVTHPVVRNALFCLESAWKTAQEGDHGSHVYTKALLAYAFALAGNQDKRKEVLKSLNEEAVKKDNSVHWERPQKPKAPVGHFYEPQAPSAEVEMTSYVLLAYLTAQPAPTSEDLTSATNIVKWITKQQNAQGGFSSTQDTVVALHALSKYGAATFTRTGKAAQVTIQSSGTFSSKFQVDNNNRLLLQQVSLPELPGEYSMKVTGEGCVYLQTSLKYNILPEKEEFPFALGVQTLPQTCDEPKAHTSFQISLSVSYTGSRSASNMAIVDVKMVSGFIPLKPTVKMLERSNHVSRTEVSSNHVLIYLDKVSNQTLSLFFTVLQDVPVRDLKPAIVKVYDYYETDEFAIAEYNAPCSKDLGNA | no binding (tested: 4–600 nM)
